# Measured values as given in paper PMC10341550, “Beta-Secretase 1 Recruits Amyloid-Beta Precursor Protein to ROCK2 Kinase, Resulting in Erroneous Phosphorylation and Beta-Amyloid Plaque Formation” (International Journal of Molecular Sciences, 2023).
# Chains of the proteins cited; added tags and fusions are not shown. Residues count along the entry.
# UniProt O75116: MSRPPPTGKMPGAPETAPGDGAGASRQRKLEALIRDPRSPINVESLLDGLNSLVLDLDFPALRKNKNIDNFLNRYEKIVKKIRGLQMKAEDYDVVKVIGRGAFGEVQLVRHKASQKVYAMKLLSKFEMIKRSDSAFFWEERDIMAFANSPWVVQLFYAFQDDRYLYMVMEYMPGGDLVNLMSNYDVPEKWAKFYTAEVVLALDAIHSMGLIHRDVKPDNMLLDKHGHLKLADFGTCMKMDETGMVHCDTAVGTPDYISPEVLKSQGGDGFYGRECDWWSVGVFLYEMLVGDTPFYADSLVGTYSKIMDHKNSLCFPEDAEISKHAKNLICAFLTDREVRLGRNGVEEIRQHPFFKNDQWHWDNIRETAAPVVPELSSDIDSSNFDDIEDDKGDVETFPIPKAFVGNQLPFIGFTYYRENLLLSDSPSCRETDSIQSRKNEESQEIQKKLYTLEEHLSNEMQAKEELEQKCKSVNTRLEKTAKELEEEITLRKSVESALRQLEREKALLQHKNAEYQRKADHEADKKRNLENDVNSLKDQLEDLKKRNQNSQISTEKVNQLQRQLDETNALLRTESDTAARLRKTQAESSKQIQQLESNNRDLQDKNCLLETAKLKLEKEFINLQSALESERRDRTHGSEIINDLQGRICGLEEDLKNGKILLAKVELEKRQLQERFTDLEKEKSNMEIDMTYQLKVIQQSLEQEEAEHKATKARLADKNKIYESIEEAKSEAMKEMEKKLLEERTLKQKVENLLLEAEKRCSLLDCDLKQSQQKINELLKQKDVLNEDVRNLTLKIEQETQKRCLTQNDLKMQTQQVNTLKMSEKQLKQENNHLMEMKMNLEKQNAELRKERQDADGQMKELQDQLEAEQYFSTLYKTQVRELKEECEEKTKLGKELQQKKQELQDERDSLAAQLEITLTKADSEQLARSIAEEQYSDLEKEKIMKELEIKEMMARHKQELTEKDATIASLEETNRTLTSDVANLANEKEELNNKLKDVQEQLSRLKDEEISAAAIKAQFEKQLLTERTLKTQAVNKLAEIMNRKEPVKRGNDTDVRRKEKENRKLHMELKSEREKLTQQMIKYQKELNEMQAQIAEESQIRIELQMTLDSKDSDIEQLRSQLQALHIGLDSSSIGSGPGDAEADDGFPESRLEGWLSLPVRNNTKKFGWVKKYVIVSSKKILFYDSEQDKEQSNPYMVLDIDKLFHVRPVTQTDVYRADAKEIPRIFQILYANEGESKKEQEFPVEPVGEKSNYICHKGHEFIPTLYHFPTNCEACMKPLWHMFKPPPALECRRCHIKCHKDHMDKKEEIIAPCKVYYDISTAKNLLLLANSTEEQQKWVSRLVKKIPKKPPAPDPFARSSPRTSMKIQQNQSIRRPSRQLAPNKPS
# UniProt P05067, residues 740-770: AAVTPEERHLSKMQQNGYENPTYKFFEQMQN
# No constants are given. Whether binding was seen depends on the method and setting.
# Target: Full-length ROCK2 protein (human ROCK2 1–1388) (human) (UniProt O75116)
# Test: fluorescence polarisation; steady-state competition: 50 nM labelled BACE1 mixed with ROCK2 to 25–50% complex, increasing unlabelled APP construct; fit to the competition-binding Morrison equation; both purified
row,binding,Substance
1,no binding,APP_(665–695) fragment (from UniProt P05067-4 665-695) (domain or fragment)
2,no binding,APP_(646–664) fragment (from UniProt P05067-4 646-664) (domain or fragment)
